From the supplement of paper PMC10849652
The other results are listed elsewhere or left out.

The chains behind the UniProt entries cited, without tags or fusion partners. Where a name states a change or a piece, a line headed by the entry shows the natural chain unless it says otherwise.
UniProt Q9HA77: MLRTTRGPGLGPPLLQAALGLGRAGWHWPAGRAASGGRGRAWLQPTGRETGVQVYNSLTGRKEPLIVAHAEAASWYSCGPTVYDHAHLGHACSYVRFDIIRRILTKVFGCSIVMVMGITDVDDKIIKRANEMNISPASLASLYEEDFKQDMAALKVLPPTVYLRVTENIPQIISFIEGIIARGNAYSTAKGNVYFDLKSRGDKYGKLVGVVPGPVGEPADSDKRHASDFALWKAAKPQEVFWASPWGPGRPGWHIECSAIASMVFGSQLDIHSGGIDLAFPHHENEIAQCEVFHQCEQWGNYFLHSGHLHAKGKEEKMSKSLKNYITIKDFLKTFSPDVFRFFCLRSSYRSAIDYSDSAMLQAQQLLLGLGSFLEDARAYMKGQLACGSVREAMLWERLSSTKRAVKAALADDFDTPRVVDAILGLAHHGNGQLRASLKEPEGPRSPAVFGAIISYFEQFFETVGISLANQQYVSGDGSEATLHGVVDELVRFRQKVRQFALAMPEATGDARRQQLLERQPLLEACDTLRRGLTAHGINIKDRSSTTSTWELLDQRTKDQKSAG
UniProt P13987: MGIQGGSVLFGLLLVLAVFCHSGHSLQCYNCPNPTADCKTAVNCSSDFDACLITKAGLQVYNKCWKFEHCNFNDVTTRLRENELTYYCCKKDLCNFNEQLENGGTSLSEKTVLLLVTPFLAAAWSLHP
UniProt Q8N4T8: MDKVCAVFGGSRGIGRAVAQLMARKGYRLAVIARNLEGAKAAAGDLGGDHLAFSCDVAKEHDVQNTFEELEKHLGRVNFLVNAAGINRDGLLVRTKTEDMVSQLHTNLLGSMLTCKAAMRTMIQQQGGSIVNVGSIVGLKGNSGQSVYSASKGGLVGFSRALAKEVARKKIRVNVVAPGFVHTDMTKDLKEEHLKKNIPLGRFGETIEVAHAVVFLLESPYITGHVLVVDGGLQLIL
UniProt Q8WUD4: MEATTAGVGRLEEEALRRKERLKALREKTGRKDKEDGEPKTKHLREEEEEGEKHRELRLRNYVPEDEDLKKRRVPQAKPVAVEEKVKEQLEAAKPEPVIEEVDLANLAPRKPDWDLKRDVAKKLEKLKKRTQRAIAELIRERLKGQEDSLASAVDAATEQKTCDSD
UniProt Q96CT7: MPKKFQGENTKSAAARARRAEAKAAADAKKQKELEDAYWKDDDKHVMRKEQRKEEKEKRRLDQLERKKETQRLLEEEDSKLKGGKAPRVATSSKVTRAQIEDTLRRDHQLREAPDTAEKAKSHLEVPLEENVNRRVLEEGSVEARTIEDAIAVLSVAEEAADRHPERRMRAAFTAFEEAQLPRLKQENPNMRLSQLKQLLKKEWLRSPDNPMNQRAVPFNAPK
UniProt Q13185: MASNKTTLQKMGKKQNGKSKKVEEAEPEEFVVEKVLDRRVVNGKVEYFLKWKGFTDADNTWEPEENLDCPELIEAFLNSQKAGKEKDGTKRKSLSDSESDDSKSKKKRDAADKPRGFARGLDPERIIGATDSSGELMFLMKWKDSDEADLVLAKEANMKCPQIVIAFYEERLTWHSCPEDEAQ
UniProt P50991: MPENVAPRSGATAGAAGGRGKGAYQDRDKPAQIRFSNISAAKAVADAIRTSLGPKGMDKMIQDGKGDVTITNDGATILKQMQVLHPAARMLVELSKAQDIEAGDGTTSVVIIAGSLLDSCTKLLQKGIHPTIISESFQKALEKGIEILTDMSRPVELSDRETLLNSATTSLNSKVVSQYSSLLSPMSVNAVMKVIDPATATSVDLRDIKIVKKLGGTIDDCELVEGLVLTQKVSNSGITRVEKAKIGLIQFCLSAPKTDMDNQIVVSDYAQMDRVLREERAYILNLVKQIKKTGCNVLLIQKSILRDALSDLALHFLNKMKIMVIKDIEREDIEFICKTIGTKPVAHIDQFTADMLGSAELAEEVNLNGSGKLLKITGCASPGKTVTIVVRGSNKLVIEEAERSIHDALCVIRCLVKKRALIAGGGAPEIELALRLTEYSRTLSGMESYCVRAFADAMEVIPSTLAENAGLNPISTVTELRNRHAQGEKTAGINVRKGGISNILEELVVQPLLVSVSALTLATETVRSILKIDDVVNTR
UniProt Q567U6, whole entry, looked up: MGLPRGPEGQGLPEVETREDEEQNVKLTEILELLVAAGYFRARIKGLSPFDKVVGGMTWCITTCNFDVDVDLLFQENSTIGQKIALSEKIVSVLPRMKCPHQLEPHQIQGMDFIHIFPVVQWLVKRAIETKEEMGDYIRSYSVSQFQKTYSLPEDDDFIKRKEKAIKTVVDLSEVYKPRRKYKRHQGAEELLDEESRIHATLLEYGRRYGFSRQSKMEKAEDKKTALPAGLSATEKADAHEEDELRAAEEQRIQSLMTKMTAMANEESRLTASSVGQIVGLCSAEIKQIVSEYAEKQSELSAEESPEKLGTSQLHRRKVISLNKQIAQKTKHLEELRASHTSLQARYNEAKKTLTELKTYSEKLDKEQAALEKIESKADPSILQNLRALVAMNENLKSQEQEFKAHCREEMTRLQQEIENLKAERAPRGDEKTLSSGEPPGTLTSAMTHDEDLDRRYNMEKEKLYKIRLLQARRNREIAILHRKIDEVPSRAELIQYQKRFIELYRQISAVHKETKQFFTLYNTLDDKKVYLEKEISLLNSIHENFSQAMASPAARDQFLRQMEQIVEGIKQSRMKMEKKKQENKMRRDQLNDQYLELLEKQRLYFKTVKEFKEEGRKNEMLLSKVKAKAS
UniProt Q86X55: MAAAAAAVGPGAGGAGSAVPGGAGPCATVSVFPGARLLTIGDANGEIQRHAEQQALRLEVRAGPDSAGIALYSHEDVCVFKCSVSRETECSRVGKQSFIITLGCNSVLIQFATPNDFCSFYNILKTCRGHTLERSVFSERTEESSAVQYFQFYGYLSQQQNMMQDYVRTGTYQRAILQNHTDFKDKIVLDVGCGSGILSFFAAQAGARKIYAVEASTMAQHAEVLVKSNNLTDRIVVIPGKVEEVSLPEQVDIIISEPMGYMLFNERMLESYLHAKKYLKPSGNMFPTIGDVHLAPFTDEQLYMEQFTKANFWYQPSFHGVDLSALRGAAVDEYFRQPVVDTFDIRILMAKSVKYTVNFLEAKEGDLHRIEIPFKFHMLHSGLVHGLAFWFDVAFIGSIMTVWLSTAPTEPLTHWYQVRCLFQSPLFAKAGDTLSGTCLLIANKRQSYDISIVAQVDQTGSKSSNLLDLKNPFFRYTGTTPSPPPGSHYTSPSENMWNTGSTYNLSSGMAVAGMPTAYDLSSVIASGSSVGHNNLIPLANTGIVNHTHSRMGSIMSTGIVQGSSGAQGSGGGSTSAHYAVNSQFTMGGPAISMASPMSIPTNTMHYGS
UniProt Q9UJX2, whole entry, looked up: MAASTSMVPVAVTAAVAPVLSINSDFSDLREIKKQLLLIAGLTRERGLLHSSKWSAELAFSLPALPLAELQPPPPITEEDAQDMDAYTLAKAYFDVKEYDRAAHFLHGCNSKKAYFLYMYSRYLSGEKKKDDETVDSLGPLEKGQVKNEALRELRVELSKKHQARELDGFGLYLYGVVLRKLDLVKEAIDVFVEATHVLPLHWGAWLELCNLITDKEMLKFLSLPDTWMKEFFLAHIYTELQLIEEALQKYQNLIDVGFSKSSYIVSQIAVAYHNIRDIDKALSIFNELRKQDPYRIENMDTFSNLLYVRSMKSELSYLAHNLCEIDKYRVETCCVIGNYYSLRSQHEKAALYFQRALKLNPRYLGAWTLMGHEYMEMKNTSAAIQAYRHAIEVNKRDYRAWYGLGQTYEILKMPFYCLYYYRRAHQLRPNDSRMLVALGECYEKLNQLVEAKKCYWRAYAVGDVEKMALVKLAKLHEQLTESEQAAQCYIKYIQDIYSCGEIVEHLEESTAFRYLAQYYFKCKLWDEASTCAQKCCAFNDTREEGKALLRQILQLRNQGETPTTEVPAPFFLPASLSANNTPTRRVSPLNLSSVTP
UniProt Q16543: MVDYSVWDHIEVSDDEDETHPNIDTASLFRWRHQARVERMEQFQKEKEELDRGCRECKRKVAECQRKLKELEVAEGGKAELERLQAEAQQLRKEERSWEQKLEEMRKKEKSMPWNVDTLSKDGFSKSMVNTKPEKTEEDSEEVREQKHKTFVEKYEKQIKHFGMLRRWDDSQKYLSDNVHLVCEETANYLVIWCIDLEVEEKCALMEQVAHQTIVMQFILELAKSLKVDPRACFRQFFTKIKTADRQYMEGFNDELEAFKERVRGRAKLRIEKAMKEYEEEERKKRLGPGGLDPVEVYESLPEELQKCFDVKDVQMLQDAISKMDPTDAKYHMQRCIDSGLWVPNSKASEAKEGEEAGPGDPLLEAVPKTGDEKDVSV
UniProt Q08722, whole entry, looked up: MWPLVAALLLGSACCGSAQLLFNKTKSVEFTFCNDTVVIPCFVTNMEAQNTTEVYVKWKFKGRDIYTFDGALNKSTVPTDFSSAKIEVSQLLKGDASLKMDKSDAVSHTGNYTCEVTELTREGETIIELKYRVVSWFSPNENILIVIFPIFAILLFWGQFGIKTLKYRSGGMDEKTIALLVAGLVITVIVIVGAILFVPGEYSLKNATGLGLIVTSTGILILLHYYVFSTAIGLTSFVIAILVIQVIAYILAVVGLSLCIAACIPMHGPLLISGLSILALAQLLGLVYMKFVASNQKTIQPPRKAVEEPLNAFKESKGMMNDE
UniProt Q9GZT6: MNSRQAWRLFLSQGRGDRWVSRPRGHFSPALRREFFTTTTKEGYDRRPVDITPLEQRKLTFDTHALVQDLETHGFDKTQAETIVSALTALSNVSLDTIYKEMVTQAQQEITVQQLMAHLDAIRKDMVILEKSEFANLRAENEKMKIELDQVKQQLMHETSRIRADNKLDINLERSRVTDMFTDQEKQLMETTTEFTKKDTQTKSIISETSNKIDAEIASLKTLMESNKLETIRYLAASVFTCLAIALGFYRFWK
UniProt Q9Y5K6, whole entry, looked up: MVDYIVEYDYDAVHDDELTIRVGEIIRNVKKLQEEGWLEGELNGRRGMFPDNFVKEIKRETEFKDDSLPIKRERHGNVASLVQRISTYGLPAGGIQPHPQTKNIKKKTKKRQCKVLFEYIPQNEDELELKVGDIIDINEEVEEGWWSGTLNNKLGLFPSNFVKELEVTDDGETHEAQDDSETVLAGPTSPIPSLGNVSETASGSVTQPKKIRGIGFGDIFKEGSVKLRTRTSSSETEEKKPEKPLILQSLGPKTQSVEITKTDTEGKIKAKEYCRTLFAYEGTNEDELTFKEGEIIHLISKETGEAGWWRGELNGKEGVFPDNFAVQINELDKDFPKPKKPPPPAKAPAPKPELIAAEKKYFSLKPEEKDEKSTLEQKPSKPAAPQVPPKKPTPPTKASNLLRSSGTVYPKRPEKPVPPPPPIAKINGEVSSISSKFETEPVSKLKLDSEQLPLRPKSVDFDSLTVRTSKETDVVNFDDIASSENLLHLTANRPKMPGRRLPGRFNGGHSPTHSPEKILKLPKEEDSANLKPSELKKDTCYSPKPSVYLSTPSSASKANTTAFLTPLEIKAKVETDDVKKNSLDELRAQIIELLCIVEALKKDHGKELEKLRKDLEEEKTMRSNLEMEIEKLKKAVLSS
UniProt Q13191, whole entry, looked up: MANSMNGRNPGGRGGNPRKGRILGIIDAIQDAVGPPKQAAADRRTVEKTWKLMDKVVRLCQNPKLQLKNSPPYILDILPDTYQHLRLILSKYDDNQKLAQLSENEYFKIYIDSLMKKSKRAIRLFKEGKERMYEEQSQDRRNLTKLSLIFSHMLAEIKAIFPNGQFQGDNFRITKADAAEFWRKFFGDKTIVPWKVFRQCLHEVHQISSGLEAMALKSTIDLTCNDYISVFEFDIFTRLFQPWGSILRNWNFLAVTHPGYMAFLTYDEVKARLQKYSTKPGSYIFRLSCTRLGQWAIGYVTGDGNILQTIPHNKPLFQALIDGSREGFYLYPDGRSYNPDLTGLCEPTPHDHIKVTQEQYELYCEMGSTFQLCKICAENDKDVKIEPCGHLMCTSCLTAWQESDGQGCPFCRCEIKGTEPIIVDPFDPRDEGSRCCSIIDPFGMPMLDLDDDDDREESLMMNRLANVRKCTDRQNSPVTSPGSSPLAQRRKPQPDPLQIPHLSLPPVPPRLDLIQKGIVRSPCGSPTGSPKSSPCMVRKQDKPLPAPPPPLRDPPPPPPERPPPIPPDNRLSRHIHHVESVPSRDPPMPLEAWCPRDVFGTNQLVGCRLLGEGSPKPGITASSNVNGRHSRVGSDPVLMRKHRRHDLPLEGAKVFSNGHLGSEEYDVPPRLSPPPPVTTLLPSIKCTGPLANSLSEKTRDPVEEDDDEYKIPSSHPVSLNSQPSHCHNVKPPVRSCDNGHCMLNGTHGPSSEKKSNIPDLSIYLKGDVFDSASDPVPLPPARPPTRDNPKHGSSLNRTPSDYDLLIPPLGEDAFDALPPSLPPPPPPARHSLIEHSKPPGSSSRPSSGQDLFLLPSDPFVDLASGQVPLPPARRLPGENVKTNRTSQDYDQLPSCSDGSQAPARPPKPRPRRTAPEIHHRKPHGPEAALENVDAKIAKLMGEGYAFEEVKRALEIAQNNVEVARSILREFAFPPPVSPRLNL

Experiments:
Assay in all cases: log2 fold change, soluble protein after heating vs DMSO (PISA); higher = thermal stabilisation; K562 cells, 10 uM, 30 min; active = over 0.2 and 3.5 SD of the protein, either way, in both replicates (recomputed)
[1] = compound: COC1=CC=C(C=C1)CN2C=CC3=C2C=C(C=C3)C(=O)NO
Summary of the method: (§1)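 K562 cells at 2×10^6 cells/mL were exposed to 10 μM compound for 30 min, then aliquots were heated for 3 min across 48°C-58°C, pooled, and extracted in PBS containing 0.5% NP-40 at 4°C. The supernatant after 21,000xg for 90 min was taken as soluble protein and measured by TMTpro 16plex LC-MS/MS with channel sums equalised. Thermal stability is reported relative to control samples, with values from duplicates. Fold changes are given on a log2 scale.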

filanesib = compound: CON(C)C(=O)N1N=C(c2cc(F)ccc2F)S[C@@]1(CCCN)c1ccccc1 [filanesib]
Summary of the method: as §1

zotarolimus = compound: CO[C@H]1C[C@@H]2CC[C@@H](C)[C@@](O)(O2)C(=O)C(=O)N2CCCC[C@H]2C(=O)O[C@H]([C@H](C)C[C@@H]2CC[C@H](n3cnnn3)[C@H](OC)C2)CC(=O)[C@H](C)/C=C(\C)[C@@H](O)[C@@H](OC)C(=O)[C@H](C)C[C@H](C)/C=C/C=C/C=C/1C [zotarolimus]
Summary of the method: as §1

idasanutlin = compound: COc1cc(C(=O)O)ccc1NC(=O)[C@@H]1N[C@@H](CC(C)(C)C)[C@](C#N)(c2ccc(Cl)cc2F)[C@H]1c1cccc(Cl)c1F [idasanutlin]
Summary of the method: as §1

alisertib = compound: COc1cc(Nc2ncc3c(n2)-c2ccc(Cl)cc2C(c2c(F)cccc2OC)=NC3)ccc1C(=O)O [alisertib]
Summary of the method: as §1

[2] = compound: COc1cc2nc(-c3cc(F)ccc3O)nc(N[C@@H]3CNC[C@H]3C(C)(C)O)c2cc1OC
Summary of the method: as §1

gefitinib = compound: COc1cc2ncnc(Nc3ccc(F)c(Cl)c3)c2cc1OCCCN1CCOCC1 [gefitinib]
Summary of the method: as §1

[3] = compound: COc1cccc2cc(-c3nc([C@H]4CC[C@H](C(=O)O)CC4)n4ncnc(N)c34)[nH]c12
Summary of the method: as §1

lapatinib = compound: CS(=O)(=O)CCNCc1ccc(-c2ccc3ncnc(Nc4ccc(OCc5cccc(F)c5)c(Cl)c4)c3c2)o1 [lapatinib]
Summary of the method: as §1

pictilisib = compound: CS(=O)(=O)N1CCN(Cc2cc3nc(-c4cccc5[nH]ncc45)nc(N4CCOCC4)c3s2)CC1 [pictilisib]
Summary of the method: as §1

[4] = compound: CS(=O)(=O)c1ccc(-c2cnc(N)c(C(=O)Nc3ccccc3)n2)cc1
Summary of the method: as §1

crizotinib = compound: C[C@@H](Oc1cc(-c2cnn(C3CCNCC3)c2)cnc1N)c1c(Cl)ccc(F)c1Cl [crizotinib]
Summary of the method: as §1

[5] = compound: C[C@@H]1COCCN1C2=NC(=NC(=C2)C3(CC3)S(=O)(=O)C)C4=C5C=CNC5=CC=C4
Summary of the method: as §1

[6] = compound: C[C@H](C1=CC=C(C=C1)C(=O)NC2=C3C=CNC3=NC=C2)N
Summary of the method: as §1

duvelisib = compound: C[C@H](Nc1ncnc2nc[nH]c12)c1cc2cccc(Cl)c2c(=O)n1-c1ccccc1 [duvelisib]
Summary of the method: as §1

gandotinib = compound: Cc1cc(Nc2cc(CN3CCOCC3)c3nc(C)c(Cc4ccc(Cl)cc4F)n3n2)n[nH]1 [gandotinib]
Summary of the method: as §1

tozasertib = compound: Cc1cc(Nc2cc(N3CCN(C)CC3)nc(Sc3ccc(NC(=O)C4CC4)cc3)n2)n[nH]1 [tozasertib]
Summary of the method: as §1

[7] = compound: Cc1cc(SCc2sc(-c3ccc(C(F)(F)F)cc3)nc2C)ccc1OCC(=O)O
Summary of the method: as §1

doramapimod = compound: Cc1ccc(-n2nc(C(C)(C)C)cc2NC(=O)Nc2ccc(OCCN3CCOCC3)c3ccccc23)cc1 [doramapimod]
Summary of the method: as §1

ispinesib = compound: Cc1ccc(C(=O)N(CCCN)[C@@H](c2nc3cc(Cl)ccc3c(=O)n2Cc2ccccc2)C(C)C)cc1 [ispinesib]
Summary of the method: as §1

Measured: log2 fold change

CARS2 (UniProt Q9HA77)
inactive: [1] 0.036 | filanesib -0.051 | zotarolimus -0.018 | idasanutlin -0.072 | alisertib 0.116 | [2] 0.038 | gefitinib -0.01 | [3] 0.102 | lapatinib 0.034 | pictilisib -0.036 | [4] 0.012 | crizotinib 0.014 | [5] 0.034 | [6] -0.036 | duvelisib 0.007 | gandotinib 0.054 | tozasertib 0.053 | [7] -0.004 | doramapimod -0.038 | ispinesib 0.032

CD59 isoform 2 (UniProt P13987)
inactive: [1] -0.014 | filanesib 0.102 | zotarolimus 0.008 | idasanutlin 0.067 | alisertib -0.123 | [2] 0.069 | gefitinib 0.101 | [3] -0.077 | lapatinib 0.003 | pictilisib 0.045 | [4] 0.049 | crizotinib 0.273 | [5] -0.079 | [6] -0.131 | duvelisib -0.057 | gandotinib 0.001 | tozasertib 0.025 | [7] -0.045 | doramapimod -0.038 | ispinesib 0.186

CBR4 (UniProt Q8N4T8)
inactive: [1] -0.007 | filanesib 0.001 | zotarolimus -0.011 | idasanutlin -0.13 | alisertib -0.006 | [2] 0.017 | gefitinib -0.01 | [3] 0.047 | lapatinib -0.018 | pictilisib 0.025 | [4] 0.016 | crizotinib 0.049 | [5] 0.011 | [6] -0.052 | duvelisib 0.06 | gandotinib 0.117 | tozasertib -0.026 | [7] 0.014 | doramapimod 0.021 | ispinesib 0.003

CCDC12 (UniProt Q8WUD4)
inactive: [1] -0.012 | filanesib -0.008 | zotarolimus -0.031 | idasanutlin 0.074 | alisertib -0.063 | [2] -0.023 | gefitinib -0.037 | [3] 0.075 | lapatinib 0.003 | pictilisib 0.035 | [4] 0.028 | crizotinib 0.095 | [5] -0.159 | [6] -0.072 | duvelisib -0.047 | gandotinib 0.11 | tozasertib -0.061 | [7] -0.065 | doramapimod -0.02 | ispinesib 0.006

CCDC124 (UniProt Q96CT7)
inactive: [1] -0.078 | filanesib 0.114 | zotarolimus -0.029 | idasanutlin 0.05 | alisertib -0.046 | [2] 0.002 | gefitinib 0.006 | [3] 0.005 | lapatinib -0.023 | pictilisib -0.007 | [4] -0.043 | crizotinib 0.006 | [5] -0.004 | [6] 0.052 | duvelisib -0.007 | gandotinib 0.031 | tozasertib -0.002 | [7] -0.013 | doramapimod 0.028 | ispinesib -0.089

CBX3 (UniProt Q13185)
inactive: [1] 0.236 | filanesib 0 | zotarolimus 0.053 | idasanutlin 0 | alisertib -0.128 | [2] 0.036 | gefitinib 0.024 | [3] -0.05 | lapatinib -0.011 | pictilisib 0.061 | [4] 0.036 | crizotinib 0.006 | [5] 0.02 | [6] -0.015 | duvelisib 0.026 | gandotinib -0.07 | tozasertib 0.013 | [7] 0.003 | doramapimod -0.06 | ispinesib 0.029

CCT4 (UniProt P50991)
inactive: [1] 0.037 | filanesib -0.061 | zotarolimus 0 | idasanutlin -0.035 | alisertib -0.073 | [2] -0.059 | gefitinib -0.01 | [3] -0.008 | lapatinib 0.117 | pictilisib -0.049 | [4] -0.038 | crizotinib 0.014 | [5] 0.031 | [6] -0.007 | duvelisib 0.002 | gandotinib -0.027 | tozasertib 0.004 | [7] 0.01 | doramapimod -0.015 | ispinesib 0.041

CCDC93 (UniProt Q567U6)
inactive: [1] 0.039 | filanesib 0.075 | zotarolimus 0.017 | idasanutlin -0.033 | alisertib -0.02 | [2] 0.156 | gefitinib 0.021 | [3] -0.113 | lapatinib -0.03 | pictilisib -0.005 | [4] 0.121 | crizotinib -0.164 | [5] 0.011 | [6] 0.134 | duvelisib 0.064 | gandotinib 0.042 | tozasertib 0 | [7] 0.072 | doramapimod 0.036 | ispinesib -0.135

CARM1 (UniProt Q86X55)
inactive: [1] 0.002 | filanesib -0.061 | zotarolimus 0.033 | idasanutlin -0.04 | alisertib -0.024 | [2] -0.02 | gefitinib 0.014 | [3] 0.057 | lapatinib -0.011 | pictilisib 0.022 | [4] 0.01 | crizotinib 0.054 | [5] 0.041 | [6] -0.059 | duvelisib 0.049 | gandotinib -0.026 | tozasertib -0.019 | [7] 0 | doramapimod -0.044 | ispinesib -0.023

CARNMT1 (UniProt Q8N4J0)
inactive: [1] -0.174 | filanesib -0.109 | zotarolimus 0.025 | idasanutlin -0.099 | alisertib 0.003 | [2] 0.092 | gefitinib 0.011 | [3] -0.002 | lapatinib 0.027 | pictilisib 0.051 | [4] 0.042 | crizotinib -0.014 | [5] 0.146 | [6] -0.022 | duvelisib -0.007 | gandotinib -0.023 | tozasertib -0.036 | [7] 0.028 | doramapimod 0.034 | ispinesib 0.038

CDC23 (UniProt Q9UJX2)
inactive: [1] -0.021 | filanesib 0.072 | zotarolimus 0.074 | idasanutlin 0.029 | alisertib -0.069 | [2] 0.013 | gefitinib 0.011 | [3] -0.02 | lapatinib 0.018 | pictilisib 0 | [4] 0.018 | crizotinib -0.019 | [5] -0.001 | [6] 0.08 | duvelisib 0.036 | gandotinib 0.006 | tozasertib 0.034 | [7] 0.022 | doramapimod 0.047 | ispinesib -0.059

CDC37 (UniProt Q16543)
inactive: [1] 0.033 | filanesib -0.034 | zotarolimus 0.089 | idasanutlin 0.024 | alisertib -0.012 | [2] -0.002 | gefitinib -0.001 | [3] -0.027 | lapatinib -0.039 | pictilisib -0.007 | [4] 0.001 | crizotinib 0.008 | [5] 0.053 | [6] -0.099 | duvelisib 0.029 | gandotinib -0.161 | tozasertib 0.044 | [7] -0.002 | doramapimod -0.001 | ispinesib 0.058

Taken from the entries so far (2 entries):
CARM1 (UniProt Q86X55)
inactive: [1] 0.002 | filanesib -0.061 | zotarolimus 0.033 | idasanutlin -0.04 | alisertib -0.024 | [2] -0.02 | gefitinib 0.014 | [3] 0.057 | lapatinib -0.011 | pictilisib 0.022 | [4] 0.01 | crizotinib 0.054 | [5] 0.041 | [6] -0.059 | duvelisib 0.049 | gandotinib -0.026 | tozasertib -0.019 | [7] 0 | doramapimod -0.044 | ispinesib -0.023

CARNMT1 (UniProt Q8N4J0)
inactive: [1] -0.174 | filanesib -0.109 | zotarolimus 0.025 | idasanutlin -0.099 | alisertib 0.003 | [2] 0.092 | gefitinib 0.011 | [3] -0.002 | lapatinib 0.027 | pictilisib 0.051 | [4] 0.042 | crizotinib -0.014 | [5] 0.146 | [6] -0.022 | duvelisib -0.007 | gandotinib -0.023 | tozasertib -0.036 | [7] 0.028 | doramapimod 0.034 | ispinesib 0.038

Next part.

CD47 (UniProt Q08722)
inactive: [1] -0.124 | filanesib 0.005 | zotarolimus -0.044 | idasanutlin -0.029 | alisertib -0.078 | [2] 0.058 | gefitinib 0.015 | [3] 0.057 | lapatinib -0.053 | pictilisib 0.058 | [4] 0.026 | crizotinib 0.116 | [5] 0.012 | [6] -0.119 | duvelisib -0.003 | gandotinib -0.016 | tozasertib -0.027 | [7] -0.028 | doramapimod -0.022 | ispinesib 0.009

CCDC90B (UniProt Q9GZT6)
inactive: [1] 0.028 | filanesib 0.008 | zotarolimus 0.01 | idasanutlin -0.034 | alisertib -0.019 | [2] -0.016 | gefitinib 0.025 | [3] 0.033 | lapatinib -0.004 | pictilisib 0.039 | [4] 0.013 | crizotinib 0.163 | [5] 0.205 | [6] -0.097 | duvelisib 0.133 | gandotinib 0.038 | tozasertib 0.005 | [7] -0.021 | doramapimod 0.047 | ispinesib 0.068

CD2AP (UniProt Q9Y5K6)
inactive: [1] 0.001 | filanesib 0.025 | zotarolimus 0.015 | idasanutlin 0.008 | alisertib -0.027 | [2] 0.041 | gefitinib 0.003 | [3] -0.012 | lapatinib -0.01 | pictilisib 0.035 | [4] 0.048 | crizotinib -0.061 | [5] 0.032 | [6] -0.081 | duvelisib 0.008 | gandotinib 0.028 | tozasertib -0.015 | [7] 0.005 | doramapimod 0 | ispinesib 0.024

CBLB (UniProt Q13191)
inactive: [1] 0.006 | filanesib -0.027 | zotarolimus 0.016 | idasanutlin -0.008 | alisertib -0.136 | [2] 0.08 | gefitinib 0.035 | [3] 0.014 | lapatinib 0.014 | pictilisib -0.038 | [4] -0.021 | crizotinib -0.025 | [5] -0.039 | [6] -0.053 | duvelisib 0.055 | gandotinib 0.003 | tozasertib 0.037 | [7] -0.022 | doramapimod -0.005 | ispinesib -0.04
